The list shows a part of the results.
Compound: Cc1cc(ccc1-c1ccccc1)C(=O)N1CCCN(CC1)C(=O)CCl [compound 10]
Test: probe-labelled cysteine peptide fold change vs DMSO (competition) (log2 fold change); higher = less target engagement (more negative = stronger competition)
Conditions: THP-1, incubation time: 4 h
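Note: competitive profiling in live THP-1 cells: cysteine peptides tagged with an iodoacetamide desthiobiotin (IA-DTB) probe, intensity after compound treatment relative to DMSO-treated cells.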

By UniProt entry, the sequences of proteins in these tests, tags left out. Where a name states a change or a piece, a line headed by the entry shows the natural chain unless it says otherwise.
UniProt O60739, whole entry: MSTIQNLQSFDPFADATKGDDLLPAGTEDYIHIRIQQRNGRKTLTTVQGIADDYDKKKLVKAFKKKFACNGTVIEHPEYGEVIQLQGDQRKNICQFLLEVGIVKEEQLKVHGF
UniProt Q9H8V3: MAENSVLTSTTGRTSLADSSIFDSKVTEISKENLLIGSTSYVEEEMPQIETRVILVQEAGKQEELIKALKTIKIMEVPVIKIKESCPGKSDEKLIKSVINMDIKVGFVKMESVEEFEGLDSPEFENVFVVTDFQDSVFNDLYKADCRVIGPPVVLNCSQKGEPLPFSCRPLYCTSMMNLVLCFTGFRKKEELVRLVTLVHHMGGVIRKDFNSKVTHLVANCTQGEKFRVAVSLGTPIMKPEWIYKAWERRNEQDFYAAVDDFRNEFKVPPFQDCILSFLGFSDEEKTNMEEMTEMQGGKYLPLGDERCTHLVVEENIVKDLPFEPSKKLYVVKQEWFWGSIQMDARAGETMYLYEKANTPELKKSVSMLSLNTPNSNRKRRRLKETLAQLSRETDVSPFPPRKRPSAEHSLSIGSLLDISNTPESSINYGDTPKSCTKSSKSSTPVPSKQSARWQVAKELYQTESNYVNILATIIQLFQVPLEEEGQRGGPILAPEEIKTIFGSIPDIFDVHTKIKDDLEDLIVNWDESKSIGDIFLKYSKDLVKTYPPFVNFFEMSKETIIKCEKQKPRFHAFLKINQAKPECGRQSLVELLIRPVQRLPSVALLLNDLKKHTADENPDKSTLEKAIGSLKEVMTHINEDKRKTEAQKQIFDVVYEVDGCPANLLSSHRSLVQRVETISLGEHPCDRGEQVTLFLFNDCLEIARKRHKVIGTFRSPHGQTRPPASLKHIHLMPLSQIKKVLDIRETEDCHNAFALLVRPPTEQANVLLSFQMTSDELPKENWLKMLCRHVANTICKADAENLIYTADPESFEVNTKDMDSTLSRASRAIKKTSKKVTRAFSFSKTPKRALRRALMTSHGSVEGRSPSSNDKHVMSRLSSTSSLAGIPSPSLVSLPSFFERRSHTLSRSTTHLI
UniProt P41214: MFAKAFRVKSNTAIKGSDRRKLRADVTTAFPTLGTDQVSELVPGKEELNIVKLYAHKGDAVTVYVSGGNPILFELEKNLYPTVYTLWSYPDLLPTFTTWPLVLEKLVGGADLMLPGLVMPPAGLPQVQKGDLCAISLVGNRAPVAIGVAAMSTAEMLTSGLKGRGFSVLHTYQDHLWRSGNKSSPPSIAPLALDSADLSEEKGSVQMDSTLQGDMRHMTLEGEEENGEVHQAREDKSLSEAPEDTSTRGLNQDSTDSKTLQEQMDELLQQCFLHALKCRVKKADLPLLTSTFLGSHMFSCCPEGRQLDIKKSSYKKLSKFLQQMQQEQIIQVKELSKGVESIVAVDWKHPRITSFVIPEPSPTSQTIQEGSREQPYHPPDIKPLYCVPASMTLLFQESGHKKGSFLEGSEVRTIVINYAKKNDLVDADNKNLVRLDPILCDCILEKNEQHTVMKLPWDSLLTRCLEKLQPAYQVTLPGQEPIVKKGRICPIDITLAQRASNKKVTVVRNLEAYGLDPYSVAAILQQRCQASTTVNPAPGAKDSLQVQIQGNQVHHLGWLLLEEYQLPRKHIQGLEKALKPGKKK
UniProt Q9H9B1: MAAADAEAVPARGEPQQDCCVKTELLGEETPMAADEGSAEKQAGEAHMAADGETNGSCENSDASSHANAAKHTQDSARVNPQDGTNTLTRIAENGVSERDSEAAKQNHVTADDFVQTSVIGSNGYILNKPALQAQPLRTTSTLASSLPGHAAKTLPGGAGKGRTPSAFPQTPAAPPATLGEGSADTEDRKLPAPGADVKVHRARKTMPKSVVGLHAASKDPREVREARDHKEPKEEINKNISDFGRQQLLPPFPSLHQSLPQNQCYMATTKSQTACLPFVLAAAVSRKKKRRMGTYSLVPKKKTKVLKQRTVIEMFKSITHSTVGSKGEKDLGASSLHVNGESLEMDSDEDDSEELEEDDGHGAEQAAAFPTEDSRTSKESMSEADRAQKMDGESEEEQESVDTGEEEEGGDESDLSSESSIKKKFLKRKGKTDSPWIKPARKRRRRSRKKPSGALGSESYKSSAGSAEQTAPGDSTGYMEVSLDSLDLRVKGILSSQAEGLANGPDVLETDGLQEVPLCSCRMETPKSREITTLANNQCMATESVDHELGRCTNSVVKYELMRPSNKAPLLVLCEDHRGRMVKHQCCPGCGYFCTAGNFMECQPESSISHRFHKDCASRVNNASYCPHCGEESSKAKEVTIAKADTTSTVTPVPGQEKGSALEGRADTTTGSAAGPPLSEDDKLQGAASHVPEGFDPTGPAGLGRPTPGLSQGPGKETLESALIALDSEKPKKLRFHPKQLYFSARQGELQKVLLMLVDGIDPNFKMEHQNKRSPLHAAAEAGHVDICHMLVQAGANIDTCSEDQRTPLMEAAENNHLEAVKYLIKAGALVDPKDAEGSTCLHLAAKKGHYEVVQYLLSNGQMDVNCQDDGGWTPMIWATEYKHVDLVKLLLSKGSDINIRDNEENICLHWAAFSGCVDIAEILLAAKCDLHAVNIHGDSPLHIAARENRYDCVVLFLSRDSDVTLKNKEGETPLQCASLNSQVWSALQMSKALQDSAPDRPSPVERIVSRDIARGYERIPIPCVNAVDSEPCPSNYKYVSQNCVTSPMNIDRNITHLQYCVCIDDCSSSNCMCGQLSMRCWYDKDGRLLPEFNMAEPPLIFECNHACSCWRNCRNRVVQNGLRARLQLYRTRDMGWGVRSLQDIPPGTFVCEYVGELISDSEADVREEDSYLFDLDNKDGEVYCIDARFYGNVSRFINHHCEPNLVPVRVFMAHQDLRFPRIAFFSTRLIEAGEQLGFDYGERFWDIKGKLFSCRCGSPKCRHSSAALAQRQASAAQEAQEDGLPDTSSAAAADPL
UniProt Q96F86: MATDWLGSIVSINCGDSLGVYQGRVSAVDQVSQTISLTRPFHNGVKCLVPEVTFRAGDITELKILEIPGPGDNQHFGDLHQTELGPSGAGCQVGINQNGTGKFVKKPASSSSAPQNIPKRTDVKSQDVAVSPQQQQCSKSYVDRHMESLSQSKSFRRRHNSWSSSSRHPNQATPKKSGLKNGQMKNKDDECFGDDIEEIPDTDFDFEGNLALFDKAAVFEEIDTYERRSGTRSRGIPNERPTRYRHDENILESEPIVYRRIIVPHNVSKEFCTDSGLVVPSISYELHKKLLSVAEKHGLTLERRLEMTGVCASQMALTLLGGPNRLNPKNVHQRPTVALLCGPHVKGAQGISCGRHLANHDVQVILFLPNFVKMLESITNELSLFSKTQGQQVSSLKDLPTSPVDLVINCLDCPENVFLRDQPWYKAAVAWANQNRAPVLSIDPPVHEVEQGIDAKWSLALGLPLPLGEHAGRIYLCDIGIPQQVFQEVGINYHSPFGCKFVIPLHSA
UniProt P05198, whole entry, looked up: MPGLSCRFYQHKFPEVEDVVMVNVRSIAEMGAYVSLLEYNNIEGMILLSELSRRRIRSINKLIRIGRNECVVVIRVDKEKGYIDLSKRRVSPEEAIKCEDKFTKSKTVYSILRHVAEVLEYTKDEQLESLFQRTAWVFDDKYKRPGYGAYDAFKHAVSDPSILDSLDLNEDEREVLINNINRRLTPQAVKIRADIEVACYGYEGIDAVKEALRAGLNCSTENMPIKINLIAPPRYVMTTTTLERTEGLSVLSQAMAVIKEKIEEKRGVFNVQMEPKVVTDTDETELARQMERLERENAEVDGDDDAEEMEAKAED
UniProt P41091, whole entry, looked up: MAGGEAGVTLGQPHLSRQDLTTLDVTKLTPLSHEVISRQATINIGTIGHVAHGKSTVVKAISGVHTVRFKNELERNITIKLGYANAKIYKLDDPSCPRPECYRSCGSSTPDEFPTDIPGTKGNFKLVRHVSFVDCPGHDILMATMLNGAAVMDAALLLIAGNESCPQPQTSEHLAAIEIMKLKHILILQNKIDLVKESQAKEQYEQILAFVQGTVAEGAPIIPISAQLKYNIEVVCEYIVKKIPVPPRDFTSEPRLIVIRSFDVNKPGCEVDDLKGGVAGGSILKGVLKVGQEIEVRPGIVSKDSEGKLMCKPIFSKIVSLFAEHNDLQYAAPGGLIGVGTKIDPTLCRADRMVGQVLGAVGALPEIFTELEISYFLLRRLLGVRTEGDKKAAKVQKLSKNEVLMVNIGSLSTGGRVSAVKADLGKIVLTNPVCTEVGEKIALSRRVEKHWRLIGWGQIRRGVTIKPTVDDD
UniProt P41567, whole entry, looked up: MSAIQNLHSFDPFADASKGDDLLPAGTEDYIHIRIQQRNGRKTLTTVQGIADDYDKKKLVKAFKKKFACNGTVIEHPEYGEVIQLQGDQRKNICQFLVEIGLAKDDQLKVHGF
UniProt P68104, whole entry, looked up: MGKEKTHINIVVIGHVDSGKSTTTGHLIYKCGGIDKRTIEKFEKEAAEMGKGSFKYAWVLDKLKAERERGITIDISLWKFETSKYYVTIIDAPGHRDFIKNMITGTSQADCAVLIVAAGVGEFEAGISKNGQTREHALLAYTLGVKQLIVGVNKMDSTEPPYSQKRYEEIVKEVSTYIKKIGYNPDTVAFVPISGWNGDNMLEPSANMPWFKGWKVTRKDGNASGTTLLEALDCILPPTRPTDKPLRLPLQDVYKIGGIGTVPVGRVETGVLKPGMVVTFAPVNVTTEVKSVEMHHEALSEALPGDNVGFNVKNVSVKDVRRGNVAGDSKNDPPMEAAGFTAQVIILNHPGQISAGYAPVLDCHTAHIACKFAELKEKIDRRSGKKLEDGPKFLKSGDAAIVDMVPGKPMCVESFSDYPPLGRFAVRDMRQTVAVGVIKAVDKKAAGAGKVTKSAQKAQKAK
UniProt P55884, whole entry, looked up: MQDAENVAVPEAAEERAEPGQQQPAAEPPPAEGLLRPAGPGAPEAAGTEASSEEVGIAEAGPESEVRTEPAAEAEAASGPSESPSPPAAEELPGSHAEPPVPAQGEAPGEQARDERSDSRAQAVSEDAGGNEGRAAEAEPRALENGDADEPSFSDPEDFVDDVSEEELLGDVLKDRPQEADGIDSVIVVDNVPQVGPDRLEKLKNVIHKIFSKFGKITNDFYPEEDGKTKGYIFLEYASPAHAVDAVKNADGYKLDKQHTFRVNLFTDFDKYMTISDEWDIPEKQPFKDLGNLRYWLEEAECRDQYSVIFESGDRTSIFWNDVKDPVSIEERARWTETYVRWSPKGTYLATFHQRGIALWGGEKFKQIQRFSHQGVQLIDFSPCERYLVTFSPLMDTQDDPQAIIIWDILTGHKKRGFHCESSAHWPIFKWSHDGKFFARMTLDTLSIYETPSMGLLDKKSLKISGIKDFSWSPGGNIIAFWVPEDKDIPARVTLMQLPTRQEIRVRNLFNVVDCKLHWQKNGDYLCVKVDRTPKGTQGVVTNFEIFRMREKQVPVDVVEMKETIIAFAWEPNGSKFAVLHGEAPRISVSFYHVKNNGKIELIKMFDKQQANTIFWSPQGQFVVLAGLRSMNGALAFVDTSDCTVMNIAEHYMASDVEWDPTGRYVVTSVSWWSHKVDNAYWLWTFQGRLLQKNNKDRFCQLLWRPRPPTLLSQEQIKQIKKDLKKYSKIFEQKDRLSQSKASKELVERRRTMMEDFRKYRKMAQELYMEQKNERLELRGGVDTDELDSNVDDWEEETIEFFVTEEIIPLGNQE
UniProt Q16610: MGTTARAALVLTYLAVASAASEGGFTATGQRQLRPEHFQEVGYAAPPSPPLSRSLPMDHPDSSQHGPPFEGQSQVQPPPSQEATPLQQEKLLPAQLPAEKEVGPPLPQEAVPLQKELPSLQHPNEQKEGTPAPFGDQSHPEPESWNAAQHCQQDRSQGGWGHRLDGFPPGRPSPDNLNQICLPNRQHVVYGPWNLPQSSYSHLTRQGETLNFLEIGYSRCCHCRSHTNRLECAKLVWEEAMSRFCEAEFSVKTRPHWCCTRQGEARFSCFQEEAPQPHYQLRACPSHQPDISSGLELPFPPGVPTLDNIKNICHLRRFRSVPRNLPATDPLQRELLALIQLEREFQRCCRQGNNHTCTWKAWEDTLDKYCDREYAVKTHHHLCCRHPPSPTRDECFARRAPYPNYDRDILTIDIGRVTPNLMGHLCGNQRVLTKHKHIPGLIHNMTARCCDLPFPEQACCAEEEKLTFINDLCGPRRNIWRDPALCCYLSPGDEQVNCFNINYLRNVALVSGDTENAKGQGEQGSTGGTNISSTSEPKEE

Target	probe-labelled cysteine peptide fold change (10 µM)	probe-labelled cysteine peptide fold change (50 µM)
EIF1B_O60739_94_NICQFLLEVGIVK (UniProt O60739)	0.546	0.0715
ECT2_Q9H8V3_157_VIGPPVVLNCSQK (UniProt Q9H8V3)	0.0827	-0.252
EIF2D_P41214_442_LDPILCDCILEK (UniProt P41214)	0.0109	-0.148
EHMT1_Q9H9B1_1105_LLPEFNMAEPPLIFECNHACSCWR (UniProt Q9H9B1)	0.0315	0.0182
EDC3_Q96F86_272_EFCTDSGLVVPSISYELHKK (UniProt Q96F86)	0.00217	-0.291
EIF2S1_P05198_199_ADIEVACYGYEGIDAVK (UniProt P05198)	-0.0299	0.126
EIF2S3_P41091_101_LDDPSCPRPECYR (UniProt P41091)	-0.106	0.209
EIF1_P41567_94_NICQFLVEIGLAK (UniProt P41567)	0.68	-0.282
EEF1A1_P68104_411_SGDAAIVDMVPGKPMCVESFSDYPPLGR (UniProt P68104)	-0.174	-0.359
EIF3B_P55884_302_YWLEEAECRDQYSVIFESGDR (UniProt P55884)	-0.143	0.026
EEFSEC_P57772_55_GITLDLGFSCFSVPLPAR (UniProt P57772)	0.415	-0.0944
ECM1_Q16610_151_EGTPAPFGDQSHPEPESWNAAQHCQQDR (UniProt Q16610)	-0.414	-0.242
EHMT2_Q96KQ7_866_ESYHDCVLLFLSR (UniProt Q96KQ7)	0.156	0.221
EFTUD2_Q15029_476_IEHTYTGGVDSDLGEAMSDCDPDGPLMCHTTK (UniProt Q15029)	-0.27	-0.276
